Experimental data as given in publication PMC11247735.
Results are given in words; binding and its absence hold for the method and conditions named. In cells and extracts the contact can be indirect. Binding can be weak; no strength is given. Sequences can lack the tags named with a protein. Values belong to the molecule of their own block, whether it stands above or below them.

How the values were obtained:
[1] = biological target: T1, Histone deacetylase 8 (human (endogenous in SU-DHL-2/R)) (UniProt Q9BY41); assay: co-IP; endogenous proteins in SU-DHL-2/R cells; one partner immunoprecipitated with its antibody, the other detected by western blotting; control immunoprecipitation with IgG
T1 sequence: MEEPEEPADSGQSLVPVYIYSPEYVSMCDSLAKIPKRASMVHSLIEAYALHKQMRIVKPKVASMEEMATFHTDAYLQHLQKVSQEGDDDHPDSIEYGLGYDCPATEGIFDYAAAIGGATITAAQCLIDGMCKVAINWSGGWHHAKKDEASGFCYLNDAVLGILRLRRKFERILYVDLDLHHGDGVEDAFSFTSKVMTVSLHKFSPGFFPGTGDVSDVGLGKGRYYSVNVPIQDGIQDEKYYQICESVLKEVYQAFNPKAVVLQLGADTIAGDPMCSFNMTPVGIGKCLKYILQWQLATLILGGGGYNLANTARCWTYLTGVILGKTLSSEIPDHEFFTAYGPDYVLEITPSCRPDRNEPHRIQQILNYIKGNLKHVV

[2] = biological target: Pyruvate dehydrogenase kinase 4 (human (endogenous in SU-DHL-2/R)); assay: as above

binding [1]: binds
Molecule: Pyruvate dehydrogenase kinase 4 (human (endogenous in SU-DHL-2/R)) (enzyme)

binding [2]: binds
B1: Histone deacetylase 8 (enzyme, UniProt Q9BY41 1-377)
chain: T1 sequence
